PubChem BioAssay AID1259254, NCATS, 2017

- Purpose: 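Gene knock-downs that lead to re-replication, shown by excess G2 DNA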 (primary screen)
- System: human HCT116 colorectal cancer cells
- Reagent: single siRNA against human genes
- Duration: 3 days
- Measurement: 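Nuclei stained with Hoechst and imaged; cell-cycle phase assigned by DNA content; G2 share scaled per plate, non-targeting siRNA 0%, GMNN siRNA 100%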
- Reading the numbers: G2 robust z-score and G2 cells, % of GMNN control: higher = more G2 cells, more excess DNA replication; raw share of cells in G2: higher = larger share of cells with G2 DNA content
- Hit rule: 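An siRNA counts as active if its G2 robust z-score lies at least 5 MADs above the screen median; here such calls match roughly 38% of GMNN control or more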
The whole screen tested about 59,000 reagents; below is a part drawn at random. About 1,550 of all reagents (2.6%) count as active. 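G2 share is only a proxy for re-replication; each gene was hit by three separate siRNAs, and active genes were retested.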 Raw values vary from plate to plate and are shown uncorrected. The numbers tell different reagents against one gene apart. Reagent sequences are not shown. Not given: the amount of reagent.

target gene | reagent | G2 robust z-score | G2 cells, % of GMNN control | raw share of cells in G2 (%) | activity call
H2BC4 (H2B clustered histone 4) | 1 | -1.12 | -4.89 | 2.96 | inactive
H2BC4 (H2B clustered histone 4) | 2 | 0.747 | 8.22 | 7.15 | inactive
H2BC4 (H2B clustered histone 4) | 3 | 0.614 | 7.29 | 5.93 | inactive
KIT (KIT proto-oncogene, receptor tyrosine kinase) | 1 | 0.389 | 5.7 | 7.49 | inactive
KIT (KIT proto-oncogene, receptor tyrosine kinase) | 2 | -1.12 | -4.91 | 3.76 | inactive
KIT (KIT proto-oncogene, receptor tyrosine kinase) | 3 | -0.525 | -0.723 | 3.77 | inactive
HS3ST3B1 (heparan sulfate-glucosamine 3-sulfotransferase 3B1) | 1 | 2.11 | 17.8 | 12 | inactive
HS3ST3B1 (heparan sulfate-glucosamine 3-sulfotransferase 3B1) | 2 | 0.334 | 5.32 | 5.01 | inactive
HS3ST3B1 (heparan sulfate-glucosamine 3-sulfotransferase 3B1) | 3 | 7.26 | 54.1 | 25.6 | active
KCNK4 (potassium two pore domain channel subfamily K member 4) | 1 | 0.465 | 6.24 | 6.89 | inactive
KCNK4 (potassium two pore domain channel subfamily K member 4) | 2 | -0.915 | -3.47 | 3.02 | inactive
KCNK4 (potassium two pore domain channel subfamily K member 4) | 3 | 0.707 | 7.94 | 8.18 | inactive
CDC20B (cell division cycle 20B) | 1 | 0.761 | 8.32 | 6.58 | inactive
CDC20B (cell division cycle 20B) | 2 | -0.638 | -1.52 | 2.45 | inactive
CDC20B (cell division cycle 20B) | 3 | 1.07 | 10.5 | 6.09 | inactive
B4GALT6 (beta-1,4-galactosyltransferase 6) | 1 | -0.176 | 1.73 | 5.87 | inactive
B4GALT6 (beta-1,4-galactosyltransferase 6) | 2 | -0.22 | 1.42 | 5.18 | inactive
B4GALT6 (beta-1,4-galactosyltransferase 6) | 3 | 3.9 | 30.4 | 15.6 | inactive
UBE2Q2P1 (UBE2Q2 pseudogene 1) | 1 | 2.2 | 18.5 | 10.1 | inactive
UBE2Q2P1 (UBE2Q2 pseudogene 1) | 2 | 9.08 | 66.8 | 32.5 | active
UBE2Q2P1 (UBE2Q2 pseudogene 1) | 3 | 0.569 | 6.97 | 7.62 | inactive
RNF167 (ring finger protein 167) | 1 | 2.67 | 21.7 | 12.6 | inactive
RNF167 (ring finger protein 167) | 2 | 0.685 | 7.79 | 7.31 | inactive
RNF167 (ring finger protein 167) | 3 | 0.617 | 7.31 | 5.85 | inactive
DYNLRB2 (dynein light chain roadblock-type 2) | 1 | 0.153 | 4.04 | 5.66 | inactive
DYNLRB2 (dynein light chain roadblock-type 2) | 2 | 0.184 | 4.26 | 7.2 | inactive
DYNLRB2 (dynein light chain roadblock-type 2) | 3 | -0.593 | -1.2 | 4.34 | inactive
RALGAPA2 (Ral GTPase activating protein catalytic subunit alpha 2) | 1 | -0.608 | -1.31 | 3.83 | inactive
RALGAPA2 (Ral GTPase activating protein catalytic subunit alpha 2) | 2 | 0.0855 | 3.57 | 6.16 | inactive
RALGAPA2 (Ral GTPase activating protein catalytic subunit alpha 2) | 3 | 0.187 | 4.29 | 4.39 | inactive
ASF1B (anti-silencing function 1B histone chaperone) | 1 | 0.998 | 9.99 | 8.36 | inactive
ASF1B (anti-silencing function 1B histone chaperone) | 2 | -0.0862 | 2.36 | 5.12 | inactive
ASF1B (anti-silencing function 1B histone chaperone) | 3 | 3.62 | 28.4 | 12.2 | inactive
HLF (HLF transcription factor, PAR bZIP family member) | 1 | 7.07 | 52.7 | 23.5 | active
HLF (HLF transcription factor, PAR bZIP family member) | 2 | 0.375 | 5.61 | 7.08 | inactive
HLF (HLF transcription factor, PAR bZIP family member) | 3 | -0.521 | -0.698 | 5.42 | inactive
GALR1 (galanin receptor 1) | 1 | -1.14 | -5.05 | 4.04 | inactive
GALR1 (galanin receptor 1) | 2 | -0.162 | 1.83 | 5.16 | inactive
GALR1 (galanin receptor 1) | 3 | -0.801 | -2.66 | 2.45 | inactive
VWDE (von Willebrand factor D and EGF domains) | 1 | -0.246 | 1.24 | 4.03 | inactive
VWDE (von Willebrand factor D and EGF domains) | 2 | -0.0865 | 2.36 | 3.94 | inactive
VWDE (von Willebrand factor D and EGF domains) | 3 | -0.52 | -0.692 | 2.97 | inactive
HNRNPA1P60 (heterogeneous nuclear ribonucleoprotein A1 pseudogene 60) | 1 | 1.24 | 11.7 | 8.78 | inactive
HNRNPA1P60 (heterogeneous nuclear ribonucleoprotein A1 pseudogene 60) | 2 | 0.15 | 4.02 | 4.53 | inactive
HNRNPA1P60 (heterogeneous nuclear ribonucleoprotein A1 pseudogene 60) | 3 | -0.946 | -3.69 | 0.74 | inactive
JDP2 (Jun dimerization protein 2) | 1 | 1.52 | 13.7 | 9.64 | inactive
JDP2 (Jun dimerization protein 2) | 2 | -0.408 | 0.0996 | 5.72 | inactive
JDP2 (Jun dimerization protein 2) | 3 | 2.9 | 23.3 | 15 | inactive
PWWP2A (PWWP domain containing 2A) | 1 | -0.76 | -2.38 | 3.94 | inactive
PWWP2A (PWWP domain containing 2A) | 2 | 2.43 | 20 | 15 | inactive
PWWP2A (PWWP domain containing 2A) | 3 | 0.246 | 4.7 | 6.26 | inactive
LRRC49 (leucine rich repeat containing 49) | 1 | -0.571 | -1.05 | 3.23 | inactive
LRRC49 (leucine rich repeat containing 49) | 2 | 0.552 | 6.85 | 7.16 | inactive
LRRC49 (leucine rich repeat containing 49) | 3 | 0.841 | 8.89 | 6.13 | inactive
SNX3 (sorting nexin 3) | 1 | -1.06 | -4.48 | 3.14 | inactive
SNX3 (sorting nexin 3) | 2 | -0.198 | 1.57 | 4.52 | inactive
SNX3 (sorting nexin 3) | 3 | 0.827 | 8.78 | 6.45 | inactive
LIPK (lipase family member K) | 1 | -0.0336 | 2.73 | 4.68 | inactive
LIPK (lipase family member K) | 2 | -0.147 | 1.93 | 3.97 | inactive
LIPK (lipase family member K) | 3 | 1.04 | 10.3 | 6.14 | inactive
GNPNAT1 (glucosamine-phosphate N-acetyltransferase 1) | 1 | -0.107 | 2.22 | 6.56 | inactive
GNPNAT1 (glucosamine-phosphate N-acetyltransferase 1) | 2 | 1.15 | 11.1 | 8.26 | inactive
GNPNAT1 (glucosamine-phosphate N-acetyltransferase 1) | 3 | 0.478 | 6.33 | 6.52 | inactive
TGIF2LX (TGFB induced factor homeobox 2 like X-linked) | 1 | -1.17 | -5.24 | 2.5 | inactive
TGIF2LX (TGFB induced factor homeobox 2 like X-linked) | 2 | 3.61 | 28.4 | 18.8 | inactive
TGIF2LX (TGFB induced factor homeobox 2 like X-linked) | 3 | 0.376 | 5.61 | 7.38 | inactive
PLCB1 (phospholipase C beta 1) | 1 | 0.122 | 3.82 | 7.9 | inactive
PLCB1 (phospholipase C beta 1) | 2 | 0.701 | 7.9 | 6.57 | inactive
PLCB1 (phospholipase C beta 1) | 3 | -1.04 | -4.37 | 2.69 | inactive
